{"sequences": {"note": "Chains of the proteins cited; added tags and fusions are not shown. Residues count along the entry.", "Insulin-Regulated Membrane-Spanning Aminopeptidase (IRAP), amino acids 1-273 (Q9UIQ6, residues 1-273)": "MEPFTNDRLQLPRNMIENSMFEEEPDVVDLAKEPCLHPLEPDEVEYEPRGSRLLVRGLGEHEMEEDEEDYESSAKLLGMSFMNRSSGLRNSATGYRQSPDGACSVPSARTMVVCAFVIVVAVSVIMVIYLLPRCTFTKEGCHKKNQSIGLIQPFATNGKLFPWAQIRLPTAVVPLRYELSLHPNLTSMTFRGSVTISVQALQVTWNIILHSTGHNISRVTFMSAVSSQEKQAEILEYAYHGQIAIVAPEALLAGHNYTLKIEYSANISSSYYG", "Insulin-Regulated Membrane-Spanning Aminopeptidase (IRAP), amino acids 750-1026 (Q9UIQ6, residues 750-1025)": "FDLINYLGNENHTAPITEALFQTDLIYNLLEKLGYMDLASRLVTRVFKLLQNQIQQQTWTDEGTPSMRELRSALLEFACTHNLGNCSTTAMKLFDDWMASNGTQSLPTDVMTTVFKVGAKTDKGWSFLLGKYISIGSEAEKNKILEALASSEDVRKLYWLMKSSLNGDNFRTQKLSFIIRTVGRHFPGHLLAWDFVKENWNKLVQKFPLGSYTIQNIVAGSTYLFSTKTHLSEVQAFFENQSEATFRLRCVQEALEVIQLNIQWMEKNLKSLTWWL", "UniProt Q99471, residues 14-154": "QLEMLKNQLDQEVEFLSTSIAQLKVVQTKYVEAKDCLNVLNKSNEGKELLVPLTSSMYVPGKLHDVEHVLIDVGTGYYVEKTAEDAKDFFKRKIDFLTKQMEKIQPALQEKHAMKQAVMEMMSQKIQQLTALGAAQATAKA", "UniProt Q15025, residues 160-500": "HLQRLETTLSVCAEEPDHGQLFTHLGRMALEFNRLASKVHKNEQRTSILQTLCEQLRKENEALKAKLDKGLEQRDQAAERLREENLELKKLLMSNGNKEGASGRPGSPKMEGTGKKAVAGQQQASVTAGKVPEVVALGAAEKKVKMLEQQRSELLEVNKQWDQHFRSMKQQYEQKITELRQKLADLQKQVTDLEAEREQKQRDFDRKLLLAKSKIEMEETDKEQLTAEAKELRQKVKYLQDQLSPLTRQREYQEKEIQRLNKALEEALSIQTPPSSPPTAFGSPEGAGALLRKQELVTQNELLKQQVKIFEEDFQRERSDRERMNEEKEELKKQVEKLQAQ", "UniProt P11166, residues 448-468": "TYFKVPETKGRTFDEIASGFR"}, "source": "patent US20040214255A1", "assay_in_all_cases": "yeast two-hybrid", "key": {"[1]": {"target": "Insulin-Regulated Membrane-Spanning Aminopeptidase (IRAP), amino acids 1-273 (human) (UniProt Q9UIQ6)"}, "[2]": {"target": "C-myc Binding Protein (MM-1), amino acids 27-175 (human) (UniProt Q99471)"}, "[3]": {"target": "Nef-Associated Factor 1 beta (Naf1b), amino acids 160-500 (human) (UniProt Q15025)"}, "[4]": {"target": "T1, PTP1b, amino acids 280-436 (human) (UniProt P18031)", "T1 sequence (looked up)": "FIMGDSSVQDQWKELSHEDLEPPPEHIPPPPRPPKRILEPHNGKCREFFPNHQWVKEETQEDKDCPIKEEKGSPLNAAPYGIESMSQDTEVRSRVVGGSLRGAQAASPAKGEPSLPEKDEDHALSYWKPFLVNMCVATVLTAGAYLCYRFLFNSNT"}, "[5]": {"target": "T2, Rab4, amino acids 1-214 (human) (UniProt P20338)", "T2 sequence (looked up)": "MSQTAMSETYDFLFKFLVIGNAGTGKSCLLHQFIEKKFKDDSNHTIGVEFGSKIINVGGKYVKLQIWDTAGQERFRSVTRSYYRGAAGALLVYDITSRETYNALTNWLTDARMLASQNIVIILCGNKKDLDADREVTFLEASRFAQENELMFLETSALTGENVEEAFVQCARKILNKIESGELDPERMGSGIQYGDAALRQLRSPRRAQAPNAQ"}, "[6]": {"target": "Glucose Transporter 1, amino acids 448-468 (human) (UniProt P11166)"}, "[7]": {"target": "Insulin-Regulated Membrane-Spanning Aminopeptidase (IRAP), amino acids 750-1026 (human) (UniProt Q9UIQ6)"}}, "note": "Results are given in words; binding and its absence hold for the method and conditions named. Some binding calls cover weakened binding; strength is not graded here.", "data": [{"binder": "VAP-A, amino acids 3-243 (protein, human, UniProt Q9P0L0 3-243, looked up) SASGAMAKHEQILVLDPPTDLKFKGPFTDVVTTNLKLRNPSDRKVCFKVKTTAPRRYCVRPNSGIIDPGSTVTVSVMLQPFDYDPNEKSKHKFMVQTIFAPPNTSDMEAVWKEAKPDELMDSKLRCVFEMPNENDKLNDMEPSKAVPLNASKQDGPMPKPHSVSLNDTETRKLMEECKRLQGEMMKLSEENRHLRDEGLRLRKVAHSDKPGSTSTASFRDNVTSPLPSLLVVIAAIFIGFF", "values": [{"measurement": "binding", "setting": "[1]", "result": "binds"}]}, {"binder": "C-Nap1, amino acids 279-426 (protein, human, UniProt Q9BV73 279-426, looked up) AELQDRVTELSALLTQSQKQNEDYEKMIKALRETVEILETNHTELMEHEASLSRNAQEEKLSLQQVIKDITQVMVEEGDNIAQGSGHENSLELDSSIFSQFDYQDADKALTLVRSVLTRRRQAVQDLRQQLAGCQEAVNLLQQQHDQW", "values": [{"measurement": "binding", "setting": "[2]", "result": "binds"}]}, {"binder": "I-TRAF, amino acids 17-424 (protein, human, UniProt Q92844 17-424, looked up) RQACMDRDSAVKELQQKTENYEQRIREQQEQLSLQQTIIDKLKSQLLLVNSTQDNNYGCVPLLEDSETRKNNLTLDQPQDKVISGIAREKLPKVRRQEVSSPRKETSARSLGSPLLHERGNIEKTFWDLKEEFHKICMLAKAQKDHLSKLNIPDTATETQCSVPIQCTDKTDKQEALFKPQAKDDINRGAPSITSVTPRGLCRDEEDTSFESLSKFNVKFPPMDNDSTFLHSTPERPGILSPATSEAVCQEKFNMEFRDNPGNFVKTEETLFEIQGIDPIASAIQNLKTTDKTKPSNLVNTCIRTTLDRAACLPPGDHNALYVNSFPLLDPSDAPFPSLDSPGKAIRGPQQPIWKPFPNQDSDSVVLSGTDSELHIPRVCEFCQAVFPPSITSRGDFLRHLNSHFNGE", "values": [{"measurement": "binding", "setting": "[3]", "result": "binds"}]}, {"binder": "VAP-A, amino acids 3-242 (protein, human, UniProt Q9P0L0 3-242, looked up) SASGAMAKHEQILVLDPPTDLKFKGPFTDVVTTNLKLRNPSDRKVCFKVKTTAPRRYCVRPNSGIIDPGSTVTVSVMLQPFDYDPNEKSKHKFMVQTIFAPPNTSDMEAVWKEAKPDELMDSKLRCVFEMPNENDKLNDMEPSKAVPLNASKQDGPMPKPHSVSLNDTETRKLMEECKRLQGEMMKLSEENRHLRDEGLRLRKVAHSDKPGSTSTASFRDNVTSPLPSLLVVIAAIFIGF", "values": [{"measurement": "binding", "setting": "[4]", "result": "binds"}]}, {"binder": "Alpha-catenin-like Protein, amino acids 510-648 (protein, human, UniProt Q9UBT7 510-648, looked up) SQISDMSTLLREINDVFEGRRGEKYGYLSLPKPMKNNANLKSLKPDKPDSEEQAKIAKLGLKLGLLTSDADCEIEKWEDQENEIVQYGRNMSSMAYSLYLFTRGEGPLKTSQDLIHQLEVFAAEGLKLTSSVQAFSKQL", "values": [{"measurement": "binding", "setting": "[5]", "result": "binds"}]}, {"binder": "DRAL(FHL2), amino acids 1-280 (protein, human, UniProt Q14192 1-279, looked up) MTERFDCHHCNESLFGKKYILREESPYCVVCFETLFANTCEECGKPIGCDCKDLSYKDRHWHEACFHCSQCRNSLVDKPFAAKEDQLLCTDCYSNEYSSKCQECKKTIMPGTRKMEYKGSSWHETCFICHRCQQPIGTKSFIPKDNQNFCVPCYEKQHAMQCVQCKKPITTGGVTYREQPWHKECFVCTACRKQLSGQRFTARDDFAYCLNCFCDLYAKKCAGCTNPISGLGGTKYISFEERQWHNDCFNCKKCSLSLVGRGFLTERDDILCPDCGKDI", "values": [{"measurement": "binding", "setting": "[6]", "result": "binds"}]}, {"binder": "SG2NA, amino acids 623-713 (protein, not shown: small tags and cut ends) FFDNKTGKMIHSMVAHLDAVTSLAVDPNGIYLMSGSHDCSIRLWNLDSKTCVQEITAHRKKLDESIYDVAFHSSKAYIASAGADALAKVFV", "values": [{"measurement": "binding", "setting": "[7]", "result": "binds"}]}]}
